Assay results reported in PubChem BioAssay AID1347075 (National Center for Advancing Translational Sciences (NCATS), 2019).
About 5,500 (1.4%) of roughly 400,000 compounds were called active. The shares of active, inactive and inconclusive entries below differ from those in the screen. The call rests on the fitted dose curve; in most records, active means well fitted cell-killing curve with a large enough effect; inconclusive means small, poorly fitted or top-dose-only effect, or effect the other way; inactive means flat fitted curve, though single readings scatter. A potency beside an inconclusive call is a rough fit, not a confirmed value.

Assay: qHTS assay for MDR1-selective chemotherapeutics: Primary screen using the parental adenocarcinoma cell KB-3-1; further: nearly all actives have a fitted effect of over 60% in size
Conditions: KB-3-1 viability, CellTiter-Glo ATP luminescence, 72 h; activity change, negative = cytotoxic: at 46.1 µM (top of the series)
How it was run: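 Viability of parental KB-3-1 cells, measured by CellTiter-Glo luminescence, followed a 72 h incubation at 37 °C with pinned compounds in phenol-red-free DMEM containing 10% FBS.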
On the % scale 0 is the no-effect control and ±100 the full control effect; potency means the concentration at half of the fitted maximal effect.

Q: For `CCOc1cc(/C=N/NC(=O)CSc2nncn2C)ccc1OCc1ccccc1`, which Potency is on record?
A: inconclusive: 0.651 µM [rising, full curve]

Q: With `CCCCC(=O)Nc1cccc(-c2nc3ccccc3s2)c1` as the compound, how does the “activity change, negative = cytotoxic” value read?
A: inactive: -0.399%

Q: Which Potency does the source give for `C/C(=N/NC(=O)c1ccc(Cl)s1)c1ccc(NC(=O)COc2ccc(Cl)cc2)cc1` here?
A: inconclusive: 29.1 µM [cytotoxic, single point]

Q: For `O=C(NCc1csc2ccccc12)Nc1cc(Cl)cc(Cl)c1`, which Potency is on record?
A: inconclusive: 14.6 µM [cytotoxic, partial curve, poor fit]

Q: For `FC(F)(F)c1cccc(NC(=S)NCc2ccccc2)c1`, which Potency is on record?
A: inconclusive: 18.4 µM [cytotoxic, single point]

Q: With `O=C(c1cccn2c(=O)c3ccccc3nc12)N1CCN(Cc2ccc3c(c2)OCO3)CC1` as the compound, how does the “activity change, negative = cytotoxic” value read?
A: inactive: 3.92%

Q: For `Cc1ccc(C(=O)NCC(=O)O)cc1S(=O)(=O)N1CCCCC1`, which Potency is on record?
A: inconclusive: 29.1 µM [rising, single point]

Q: With `CCOC(=O)c1ccc(NC(=O)CS(=O)(=O)c2cn(CC)c3ccccc23)cc1` as the compound, how does the Potency read?
A: inconclusive: 32.6 µM [cytotoxic, single point]

Q: For `O=C(Oc1ccc(-c2nc(-c3ccccn3)no2)cc1)c1ccccc1`, which Potency is on record?
A: active: 7.31 µM

Q: With `COc1cccc(/C=N/NC(=O)c2ccoc2C)c1` as the compound, how does the “activity change, negative = cytotoxic” value read?
A: inactive: -1.29%

Q: With `Fc1ccc(CNC(=S)NC2CCCC2)cc1` as the compound, how does the activity change, negative = cytotoxic read?
A: inconclusive: 3.08%

Q: For `CCOC(=O)c1c(C)[nH]c(C(=O)N2CCN(c3ccc(OC)cc3)CC2)c1C`, which “activity change, negative = cytotoxic” value is on record?
A: inactive: -0.953%

Q: For `Clc1ccc(OCc2nc(-c3ccccn3)n[nH]2)cc1`, which Potency is on record?
A: inconclusive: 29.1 µM [cytotoxic, single point]

Q: With `Oc1c(Cl)cc(Cl)cc1/C=N/Nc1ncc(Br)cn1` as the compound, how does the Potency read?
A: inconclusive: 1.03 µM [cytotoxic, full curve, poor fit]

Q: For `O=C(Nc1ccccc1)c1ccccc1NS(=O)(=O)c1ccc(Cl)s1`, which Potency is on record?
A: active: 5.17 µM

Q: Which Potency does the source give for `CCOc1cc(/C=C/c2cc(C(F)(F)F)[nH]c(=O)n2)ccc1O` here?
A: inconclusive: 29.1 µM [cytotoxic, single point]

Q: For `CC(=O)N1CCc2cc(S(=O)(=O)N3c4ccccc4CC3C)ccc21` (stereo not given), which Potency is on record?
A: inconclusive: 20.6 µM [cytotoxic, partial curve]

Q: With `CC(C)C(=O)NC(c1cccs1)c1cc([N+](=O)[O-])c2cccnc2c1O` (stereo not given) as the compound, how does the Potency read?
A: inconclusive: 16.4 µM [cytotoxic, single point]

Q: With `Cc1cc(C(=O)Nc2cc(C(C)(C)C)on2)c(C)o1` as the compound, how does the Potency read?
A: inconclusive: 11.6 µM [cytotoxic, partial curve, poor fit]

Q: With `COc1ccccc1Nc1nc(NCC(C)C)nc(N)c1[N+](=O)[O-]` as the compound, how does the “activity change, negative = cytotoxic” value read?
A: inactive: 3.3%

Q: Which “activity change, negative = cytotoxic” value does the source give for `OCCC1CN(Cc2ccc3cccc(F)c3n2)CCN1Cc1ccccc1` (stereo not given) here?
A: inactive: -3.37%

Q: For `O=C(C1CCN(S(=O)(=O)N2CCC3(CC2)OCCO3)CC1)N1CCC(Cc2ccccc2)CC1`, which Potency is on record?
A: inconclusive: 14.6 µM [cytotoxic, single point]

Q: With `O=C1c2cccc3cccc(c23)N1Cc1cccc(F)c1` as the compound, how does the Potency read?
A: inconclusive: 0.82 µM [rising, full curve, poor fit]

Q: Which “activity change, negative = cytotoxic” value does the source give for `O=C(NCCc1c[nH]c2ccccc12)c1ccc([N+](=O)[O-])cc1` here?
A: inactive: 10.7%

Q: Which Potency does the source give for `Cc1cc(NS(=O)(=O)c2ccc(NC(=O)c3ccc([N+](=O)[O-])cc3)cc2)nc(C)n1` here?
A: inconclusive: 23.1 µM [cytotoxic, single point]

Q: Which Potency does the source give for `Cc1cc(C)n(-c2ccc3nnc(C)n3n2)n1` here?
A: inconclusive: 32.6 µM [cytotoxic, single point]

Q: With `Cc1ccc(C(=O)N2CCN=C2SCc2ccc([N+](=O)[O-])cc2)cc1` as the compound, how does the Potency read?
A: inconclusive: 29.1 µM [cytotoxic, single point]

Q: Which Potency does the source give for `O=C(Nc1ccccc1C(=O)NCc1cccnc1)c1ccccc1F` here?
A: inconclusive: 32.6 µM [rising, single point]

Q: For `COc1cc(NC(N)=S)c(OC)cc1Cl`, which Potency is on record?
A: inconclusive: 3.66 µM [rising, partial curve, poor fit]

Q: With `C(=C\c1ccnc2ccccc12)/c1ccnc2ccccc12` as the compound, how does the Potency read?
A: inconclusive: 29.1 µM [cytotoxic, single point]

Q: With `Cc1n[nH]c(C)c1NC(=O)c1cc([N+](=O)[O-])ccc1Cl` as the compound, how does the activity change, negative = cytotoxic read?
A: inconclusive: 4.65%

Q: For `O=C(CSc1nnnn1Cc1ccccc1)Nc1ccc2c(c1)OCO2`, which Potency is on record?
A: inconclusive: 20.6 µM [rising, single point]

Q: Which “activity change, negative = cytotoxic” value does the source give for `Cn1c(Cc2cccs2)nnc1SCC(=O)N1CCCc2ccccc21` here?
A: inactive: 3.87%

Q: For `Cc1ccc(-c2nn3c(C)nnc3s2)cc1N`, which Potency is on record?
A: inconclusive: 20.6 µM [cytotoxic, partial curve, poor fit]

Q: For `O=C(Nc1ccc(N2CCCC2)c(Cl)c1)c1cccnc1`, which Potency is on record?
A: inconclusive: 29.1 µM [cytotoxic, single point]

Q: Which “activity change, negative = cytotoxic” value does the source give for `O=C(O)C1CCCC[C@H]1C(=O)Nc1ncc([N+](=O)[O-])s1` (stereo not given in full) here?
A: inactive: -7.42%

Q: With `CCCC(=O)Nc1ccc(C2C(=O)c3ccccc3C2=O)cc1` as the compound, how does the Potency read?
A: inconclusive: 29.1 µM [cytotoxic, single point]

Q: With `Cn1c(C(=O)NCCCN2CCc3ccccc3C2)cc2c(=O)n(C)c3ccccc3c21` as the compound, how does the Potency read?
A: inconclusive: 20.6 µM [cytotoxic, partial curve, poor fit]

Q: For `CCOc1cc(/C=C2\CCn3c2nc2cc(Cl)ccc2c3=O)ccc1O`, which “activity change, negative = cytotoxic” value is on record?
A: inactive: 1.45%

Q: For `Cc1ccc(NC(=O)CNc2cccc(Br)c2)cc1S(=O)(=O)N1CCOCC1`, which Potency is on record?
A: inconclusive: 20.6 µM [cytotoxic, single point]

Q: For `O=S(=O)(c1ccc(SCc2ccc(Br)cc2)nc1)N1CCCCC1`, which “activity change, negative = cytotoxic” value is on record?
A: inactive: -2.04%

Q: For `COc1ccc(/C=N/NC(=O)c2ccccc2)cc1OS(=O)(=O)c1ccccc1`, which Potency is on record?
A: inconclusive: 29.1 µM [cytotoxic, single point]

Q: Which activity change, negative = cytotoxic does the source give for `CCOC(=O)C1(C)CCCN1C(=O)c1cccc(F)c1` (stereo not given) here?
A: inconclusive: 0%

Q: For `CCOC(=O)CN1C(=O)N[C@@H](c2ccco2)C(C(C)=O)=C1C`, which Potency is on record?
A: inconclusive: 32.6 µM [rising, partial curve, poor fit]

Q: Which “activity change, negative = cytotoxic” value does the source give for `C=CC[C@@H](CC(=O)N[C@@H](CO)Cc1ccccc1)C(=O)N[C@@H](COC(=O)[C@@H](CC=C)Cc1ccc(F)cc1)Cc1c[nH]c2ccccc12` here?
A: inactive: 0%
